# Data taken from PMC8486872, “A rational blueprint for the design of chemically-controlled protein switches” (Nature Communications, 2021).
# Tested on: SEAP and Luciferase expression in HEK293T cells
# Assay: SIMO designer cells (AIR-1/2-GEMS + CDH-1/2-TF)
# Settings: Fig S13h; AIR-1-GEMS control SEAP expression only; Drug-1 1000 nM
smiles,measurement,value
CN(C)CC#Cc1ccc(OCCCc2sc(N3CCc4cccc(C(=O)Nc5nc6ccccc6s5)c4C3)nc2C(=O)O)c(F)c1,SEAP,"325 U/L, 295 U/L, 647 U/L"

# A number of entries come with more than one value. The other results are left out here. The source may hold further records. The records of an entry differ for a reason that is not stated; they may come from other doses, times, organisms or constructs than stated.
